The amount applied is not stated for every result.
Tested on: B16V mouse melanoma cells
Assay: Calculation of the safety factor SF
Type: cell-based
Settings: Safety factor SF=(IC50 cytotox)/(EC50 pigmenting effect)

Structure (SMILES) | SF | SF (listed as naringin)
COc1ccc([C@@H]2CC(=O)c3c(O)cc(O[C@@H]4O[C@H](CO[C@@H]5O[C@@H](C)[C@H](O)[C@@H](O)[C@H]5O)[C@@H](O)[C@H](O)[C@H]4O)cc3O2)cc1O [Hesperidin] | 1000 | 
C[C@@H]1O[C@@H](O[C@H]2[C@H](Oc3cc(O)c4c(c3)OC(c3ccc(O)cc3)CC4=O)O[C@H](CO)[C@@H](O)[C@@H]2O)[C@H](O)[C@H](O)[C@H]1O (some centres unmarked) [Naringin] | 20000 | 20,000
COc1ccc(C2CC(=O)c3c(O)cc(OC4OC(CO)C(O)C(O)C4OC4OC(C)C(O)C(O)C4O)cc3O2)cc1O (centres unmarked) [Neohesperidin] | 4000 | 
O=c1c(O)c(-c2ccc(O)c(O)c2)oc2cc(O)cc(O)c12 [Quercetin] | 3.2 | 
